Data as given in PubChem BioAssay AID686937 (Drosophila RNAi Screening Center, 2013)
In all, the deposit lists about 23,000 reagents; below is an unselected part of those that have a named target and a result. 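Reduced-secretion tags in replicate 1 do not always agree with the z-scores; no criterion for assigning the tags was given.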 A plus sign joins genes that one reagent is predicted to hit. The record does not give: the amount of reagent.

Aim: 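Genes whose loss weakens secretory pathway function in fly cells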 (primary screen)
Cells: Drosophila S2 cells expressing secreted horseradish peroxidase
Reagents: long dsRNA against Drosophila genes
Duration: about 5.5 days (5 days dsRNA, then 12 h reporter induction)
Treatment: reporter expression induced after 5 days of dsRNA, read 12 h later; inducer not stated
Detection: 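Chemiluminescent measurement of peroxidase in the medium 12 h after reporter induction, following 5 days of dsRNA, given as a z-score per plate; higher means more secretion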
Direction: z-score: higher = more reporter secreted into medium

Target gene	DRSC id	z-score, replicate 1	z-score, replicate 2	z-score, replicate 3	z-score, replicate 4	phenotype, replicate 1
CG6429	DRSC06986	0.62	0.28			
BRWD3	DRSC15369	-1.15	-0.58			
BRWD3	DRSC16032	-0.39	-0.93			
CG8188	DRSC20090	0.15	0.36	-0.41	-0.07	
lin (lines)	DRSC07644	0.41	0.36			
MTPAP (mitochondrial poly(A) polymerase)	DRSC18585	0	0.27			
CG13654	DRSC14654	0.21	0			
CG33287	DRSC22929	0.02	-0.35			
CG10254	DRSC14153	-0.07	-0.38			
CG7248	DRSC10788	0.35	0.23			
cad (caudal)	DRSC03502	-1.68	-2.66			reduced secretion
CG15800	DRSC04271	0.32	0.19			
a6	DRSC18733	0.47	0.44			
CG30109 + CG30108	DRSC05674	-0.39	0.23			
Ser7	DRSC18201	0.43	0.52			
CG6893	DRSC10742	0.32	0.33			
CG2006	DRSC15412	0.32	0.22	0.12	1.08	
clu (clueless)	DRSC07181	0.26	0.57			
Polr3A (RNA polymerase III subunit A)	DRSC19766	-0.33	-0.15			
rngo (rings lost)	DRSC19903	0.8	0.26			
CG7656	DRSC10900	0.37	0.49			
CG11294	DRSC17777	0.36	0.35			
Polr2H (RNA polymerase II, I and III subunit H)	DRSC11642	-3.37	-4.41			reduced secretion
Cp110 (Centriolar coiled coil protein 110kDa)	DRSC20630	0.16	0.23			
Cp110 (Centriolar coiled coil protein 110kDa)	DRSC21716	-0.49	-0.11			
zyd (zydeco)	DRSC20716	0.14	0.31			
CG30466	DRSC05556	0.04	0.38			
Rad1 + Sws1	DRSC00778	0.34	0.25			
CG30060	DRSC05419	0.21	0.26			
CG34337	DRSC18435	0.33	0.63			
CG7164	DRSC03018	0.66	0.48			
CG31157	DRSC21832	0.36	2.29			
CG7509	DRSC08596	0.54	0.29			
CG7275	DRSC10796	0.2	0.09			
CG6729	DRSC02984	0.49	0.48	0.39	0.29	
CG6729	DRSC22793	0.5	-0.85			
CG4730	DRSC15633	0.23	0.37			
CG7565	DRSC10881	0.36	0.53			
sesB (stress-sensitive B)	DRSC20371	0.25	0.25			
Cpsf73 (Cleavage and polyadenylation specificity factor 73)	DRSC16291	-1.66	-2.47			reduced secretion
CG32590	DRSC19594	0.33	0.31			
CG30151	DRSC05888	-0.26	0.43			
CG14270	DRSC17913	-0.37	-0.69			
CG7202	DRSC11818	0.39	0.42			
Sumo (Small ubiquitin like modifier)	DRSC03611	-3.37	-3.41			reduced secretion
GalT1 (beta1,3-galactosyltransferase 1)	DRSC22238	0.72	1.28			
CG15414	DRSC00429	0.17	0.33			
CG15414	DRSC22353	-0.49	-0.16			
CG33773	DRSC14032	0.31	0.35			
eIF3a (eukaryotic translation initiation factor 3 subunit a)	DRSC12339	-3.36	-1.7			reduced secretion
CG5800	DRSC19962	0.28	0.53			
CG14258	DRSC14753	0.38	0.23			
CG11398	DRSC18625	0.29	0.27			

Part of the list above, limited to “z-score, replicate 1”.
BRWD3 [DRSC16032]: -0.39
CG8188 [DRSC20090]: 0.15
lin (lines) [DRSC07644]: 0.41
MTPAP (mitochondrial poly(A) polymerase) [DRSC18585]: 0
CG13654 [DRSC14654]: 0.21
CG33287 [DRSC22929]: 0.02
CG10254 [DRSC14153]: -0.07
CG7248 [DRSC10788]: 0.35
cad (caudal) [DRSC03502]: -1.68

More reagents follow:
Target gene	DRSC id	z-score, replicate 1	z-score, replicate 2	z-score, replicate 3	z-score, replicate 4	phenotype, replicate 1
CG33630	DRSC14546	0.31	-0.36			
CG34041	DRSC22276	-0.2	-1.52			reduced secretion
CG13198	DRSC06323	0.38	0.15			
Trf5 (TBP-related factor 5)	DRSC00412	0.19	0.52			
phol (pleiohomeotic like)	DRSC10367	-0.13	0.2			
Rpn12 (Regulatory particle non-ATPase 12)	DRSC11275	-6.39	-6.14			reduced secretion
ScpX	DRSC03430	0.13	0.18			
Patr-1 (Protein associated with topo II related - 1)	DRSC14159	-0.21	0.09			
CG17350	DRSC02611	0.31	0.23			
mTTF (mitochondrial transcription termination factor)	DRSC01909	-0.04	-0.01			
CG32369	DRSC10042	-0.04	-0.02			
CG32369	DRSC10834	0.01	0.13			
cora (coracle)	DRSC07597	0.33	0.35			
CG12499	DRSC14521	-0.14	-0.75			
SppL (Signal peptide peptidase-like)	DRSC15228	0.05	0.22			
pix (pixie)	DRSC10533	-1.99	-0.88			
CG18787 + CG18789	DRSC02698	1.44	0.34			
Atg6 (Autophagy-related 6)	DRSC15798	0.2	0.11			
Nf1 (Neurofibromin 1)	DRSC16758	0.52	0.45			
CG10154	DRSC09707	0.34	0.35			
CG15741	DRSC19707	0.22	0.29			
Eaat1 (Excitatory amino acid transporter 1)	DRSC03321	0.7	0.33			
Nazo	DRSC14343	-0.48	-0.62			
Gr59d (Gustatory receptor 59d)	DRSC22553	-0.27	0.04			
CG8860	DRSC07291	-3.29	-3.97			reduced secretion
CG15208	DRSC19654	0.06	0.02			
iotaTry (iotaTrypsin)	DRSC07634	0.24	0.21			
CG30460	DRSC06559	0.63	-0.04			
CG30460	DRSC06560	-1.72	-2.84			reduced secretion
CG14229	DRSC19585	-2.72	-1.82			reduced secretion
PolQ (DNA polymerase theta)	DRSC17006	-0.45	-0.47			
CR33294 (pseudo)	DRSC22950	0.27	-0.42			
wde (windei)	DRSC05955	-0.09	0.19			
l(2)k05911 (lethal (2) k05911)	DRSC02523	0.73	0.66			
CG10428	DRSC02054	0.3	0.16			
CG17646	DRSC00507	0.43	0.29			
CG6000	DRSC15938	0.25	0.4			
CG4238	DRSC00090	-0.2	-1.7			
CG4238	DRSC00644	0.31	0.2			
Osi16 (Osiris 16)	DRSC12135	0.51	0.53			
Osi16 (Osiris 16)	DRSC21323	1.52	1.68			
Vps4 (Vacuolar protein sorting 4)	DRSC19338	-3.03	-4.57			reduced secretion
Lcp4 (Larval cuticle protein 4)	DRSC07458	0.18	0.17			
NimB5 (Nimrod B5)	DRSC01885	0.23	0.17			
CG11980	DRSC14456	0.34	0.28			
CG7300	DRSC03044	0.3	0.33			
CG9886	DRSC00732	0.45	0.37			
CG32820 + CG17450 + CG32819	DRSC21803	-0.92	1.37			
CG32820 + CG17450 + CG32819	DRSC22812	0.46	0.03			
ZnT77C (Zinc transporter 77C)	DRSC11766	0.13	0.22			
ZnT77C (Zinc transporter 77C)	DRSC11767	0.35	0.43			
